# Source: patent US7335352B1, “Method of identifying agents that inhibit quorum sensing activity of gamma-proteobacteria” (priority 2003, dated 2008)
# Legend:
# P. aeruginosa PAO1 [1] = assay: LC/APCI-MS analysis of culture fluid of P. aeruginosa PAO1 growing on 3OC12HSL; type: cell-based, Pseudomonas aeruginosa
# P. aeruginosa PAO1 [2] = assay: Accumulation of endogenous 3OC12HSL by P. aeruginosa PAO1 cultures in LB; type: cell-based, Pseudomonas aeruginosa; details: LB at 30° C.
smiles,measurement,setting,value
"CCCCCCCCCC(=O)CC(=O)N[C@H]1CCOC1=O [3OC12-L-HSL, N-3-oxododecanoyl-L-homoserine lactone]",Remaining substrate concentration,"P. aeruginosa PAO1 [1]; by early stationary phase, MES 5.5 medium, 1 mM 3OC12HSL sole energy source",less than 125 nM
same,Accumulated endogenous 3OC12HSL,P. aeruginosa PAO1 [2]; PAO1 constitutively expressing PvdQ,did not accumulate any of this quorum signal above the threshold of detection
same,Accumulated endogenous 3OC12HSL,P. aeruginosa PAO1 [2]; wild-type PAO1,> 6 µM
CCCCCCCCCC(=O)CC(=O)NC(CCO)C(=O)O (centres unmarked) [3OC12-homoserine],Concentration relative to the initial AHL concentration,P. aeruginosa PAO1 [1]; throughout growth on 1 mM 3OC12HSL,≤ 0.1%
"N[C@H]1CCOC1=O [HSL, homoserine lactone]",Maximum accumulated concentration,"P. aeruginosa PAO1 [1]; just before the onset of stationary phase, growth on 3OC12HSL",ca. 500 μM
